Data as given in PubChem BioAssay AID1259308 (NCATS, 2017).
Assay: 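Genes whose loss raises luciferase production in HEK293 cells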 (primary screen). Cells: human HEK293 embryonic kidney cells stably expressing firefly luciferase (HEK-CMV-Luc2-Hygro). Reagent: single siRNA against human genes, 0.8 pmol siRNA per well. Duration: 72 h. Read-out: 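Luciferase light (ONE-Glo) measured on one replicate plate set and viability (CellTiter-Glo) on the other, scaled to a negative control siRNA, with robust z-scores and luciferase per cell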. Scale: total luciferase, z-score and total luciferase, % of control: higher = more reporter protein produced. Rule for the call: 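Active when the median/MAD z-score for overall luciferase is greater than 3; a gene was taken forward for validation with new siRNAs if at least two of its three siRNAs passed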. Calls: active = raised luciferase; inactive = no rise.
Here is a random part of about 59,000 reagents tested. Over the whole deposit, about 1,510 (2.6%) are marked active. 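Calls use total luciferase alone and ignore viability, so some active siRNAs may act by altering cell number.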 A number with no mark means an inactive call. The numbers tell different reagents against one gene apart. Further read-outs or replicates are left out here. No sequences are given here.

Target gene | reagent no. | total luciferase, z-score | total luciferase, % of control
PSMD10 (proteasome 26S subunit, non-ATPase 10) | 1 | -0.945 | 63.1
PSMD10 (proteasome 26S subunit, non-ATPase 10) | 2 | -1.01 | 61.7
PSMD10 (proteasome 26S subunit, non-ATPase 10) | 3 | -0.649 | 69
CCDC47 (coiled-coil domain containing 47) | 1 | -0.667 | 68.6
CCDC47 (coiled-coil domain containing 47) | 2 | -0.0421 | 81
CCDC47 (coiled-coil domain containing 47) | 3 | -0.267 | 76.6
DNAJB12 (DnaJ heat shock protein family (Hsp40) member B12) | 1 | 0.723 | 96.3
DNAJB12 (DnaJ heat shock protein family (Hsp40) member B12) | 2 | 6.66 (active) | 214
DNAJB12 (DnaJ heat shock protein family (Hsp40) member B12) | 3 | 1.8 | 118
LYZL1 (lysozyme like 1) | 1 | 0.312 | 88.1
LYZL1 (lysozyme like 1) | 2 | 0.548 | 92.8
LYZL1 (lysozyme like 1) | 3 | 0.454 | 90.9
ADAMTSL5 (ADAMTS like 5) | 1 | -0.453 | 72.9
ADAMTSL5 (ADAMTS like 5) | 2 | 0.000808 | 81.9
ADAMTSL5 (ADAMTS like 5) | 3 | -0.481 | 72.3
C1QTNF3 (C1q and TNF related 3) | 1 | 1.41 | 110
C1QTNF3 (C1q and TNF related 3) | 2 | -0.085 | 80.2
C1QTNF3 (C1q and TNF related 3) | 3 | -0.849 | 65
ARL1 (ARF like GTPase 1) | 1 | 0.634 | 94.5
ARL1 (ARF like GTPase 1) | 2 | -0.868 | 64.6
ARL1 (ARF like GTPase 1) | 3 | 0.297 | 87.8
GPR139 (G protein-coupled receptor 139) | 1 | 0.237 | 86.6
GPR139 (G protein-coupled receptor 139) | 2 | -1.11 | 59.7
GPR139 (G protein-coupled receptor 139) | 3 | 1.42 | 110
ZNF227 (zinc finger protein 227) | 1 | -0.73 | 67.4
ZNF227 (zinc finger protein 227) | 2 | -1.08 | 60.3
ZNF227 (zinc finger protein 227) | 3 | -0.626 | 69.4
SHANK2 (SH3 and multiple ankyrin repeat domains 2) | 1 | 0.269 | 87.2
SHANK2 (SH3 and multiple ankyrin repeat domains 2) | 2 | -0.0339 | 81.2
SHANK2 (SH3 and multiple ankyrin repeat domains 2) | 3 | -0.723 | 67.5
SFSWAP (splicing factor SWAP) | 1 | 0.679 | 95.4
SFSWAP (splicing factor SWAP) | 2 | 1.16 | 105
SFSWAP (splicing factor SWAP) | 3 | -0.394 | 74.1
SLC2A4RG (SLC2A4 regulator) | 1 | -1.34 | 55.2
SLC2A4RG (SLC2A4 regulator) | 2 | 0.614 | 94.1
SLC2A4RG (SLC2A4 regulator) | 3 | 0.214 | 86.1
TAF11L2 (TATA-box binding protein associated factor 11 like 2) | 1 | -0.0216 | 81.5
TAF11L2 (TATA-box binding protein associated factor 11 like 2) | 2 | 0.957 | 101
TAF11L2 (TATA-box binding protein associated factor 11 like 2) | 3 | 1.45 | 111
DHDDS (dehydrodolichyl diphosphate synthase subunit) | 1 | 0.0169 | 82.2
DHDDS (dehydrodolichyl diphosphate synthase subunit) | 2 | 0.145 | 84.8
DHDDS (dehydrodolichyl diphosphate synthase subunit) | 3 | 0.872 | 99.2
GLB1L2 (galactosidase beta 1 like 2) | 1 | 0.802 | 97.8
GLB1L2 (galactosidase beta 1 like 2) | 2 | -0.635 | 69.3
GLB1L2 (galactosidase beta 1 like 2) | 3 | 2.6 | 134
WSB1 (WD repeat and SOCS box containing 1) | 1 | -0.212 | 77.7
WSB1 (WD repeat and SOCS box containing 1) | 2 | -0.844 | 65.1
WSB1 (WD repeat and SOCS box containing 1) | 3 | -1.12 | 59.5
SHCBP1L (SHC binding and spindle associated 1 like) | 1 | -0.259 | 76.7
SHCBP1L (SHC binding and spindle associated 1 like) | 2 | -0.57 | 70.6
SHCBP1L (SHC binding and spindle associated 1 like) | 3 | -0.275 | 76.4
CLEC1B (C-type lectin domain family 1 member B) | 1 | -1.25 | 57.1
CLEC1B (C-type lectin domain family 1 member B) | 2 | 0.973 | 101
CLEC1B (C-type lectin domain family 1 member B) | 3 | -0.218 | 77.5
VAMP2 (vesicle associated membrane protein 2) | 1 | -1.46 | 52.8
VAMP2 (vesicle associated membrane protein 2) | 2 | 1.63 | 114
VAMP2 (vesicle associated membrane protein 2) | 3 | 0.114 | 84.2
SPRED1 (sprouty related EVH1 domain containing 1) | 1 | 0.565 | 93.1
SPRED1 (sprouty related EVH1 domain containing 1) | 2 | -0.563 | 70.7
SPRED1 (sprouty related EVH1 domain containing 1) | 3 | 1.47 | 111
ZNF420 (zinc finger protein 420) | 1 | -0.716 | 67.7
ZNF420 (zinc finger protein 420) | 2 | 0.548 | 92.8
ZNF420 (zinc finger protein 420) | 3 | 0.757 | 96.9
LILRB4 (leukocyte immunoglobulin like receptor B4) | 1 | -0.369 | 74.5
LILRB4 (leukocyte immunoglobulin like receptor B4) | 2 | -0.36 | 74.7
LILRB4 (leukocyte immunoglobulin like receptor B4) | 3 | 1.29 | 108
RPS26P31 (ribosomal protein S26 pseudogene 31) | 1 | -2.64 | 29.4
RPS26P31 (ribosomal protein S26 pseudogene 31) | 2 | -2.76 | 27.1
RPS26P31 (ribosomal protein S26 pseudogene 31) | 3 | 0.706 | 95.9
COPA (coat protein complex I subunit alpha) | 1 | 1.68 | 115
COPA (coat protein complex I subunit alpha) | 2 | 2.35 | 129
COPA (coat protein complex I subunit alpha) | 3 | 1.15 | 105
CIRBP-AS1 (CIRBP antisense RNA 1) | 1 | -0.804 | 65.9
CIRBP-AS1 (CIRBP antisense RNA 1) | 2 | 0.325 | 88.4
CIRBP-AS1 (CIRBP antisense RNA 1) | 3 | -0.437 | 73.2

In a second layout: entries from further up.
Target gene,reagent no.,"total luciferase, z-score","total luciferase, % of control"
"PSMD10 (proteasome 26S subunit, non-ATPase 10)",1,-0.945,63.1
"PSMD10 (proteasome 26S subunit, non-ATPase 10)",2,-1.01,61.7
"PSMD10 (proteasome 26S subunit, non-ATPase 10)",3,-0.649,69
CCDC47 (coiled-coil domain containing 47),1,-0.667,68.6
CCDC47 (coiled-coil domain containing 47),2,-0.0421,81
